In PubChem BioAssay AID540276 (National Center for Advancing Translational Sciences (NCATS), 2011):
The whole screen tested about 300,000 compounds, of which about 5,400 (1.8%) were called active. The shares of active, inactive and inconclusive entries below differ from those in the screen. Calls follow the shape of the full dose curve; tested in HEK293 cells. Potencies of inconclusive entries are doubtful fits and often do not repeat.

assay: qHTS for inhibitors of binding or entry into cells for Marburg Virus; conditions: Marburg virus pseudotyped entry inhibition, cell reporter; series mostly up to 37.8 µM
Potency is read from the fitted curve at half-maximal effect.

Row | Structure (SMILES) | Potency
1 | CCCCc1nc2c(c3c1C[C@H](C)OC3)CN(C(=O)c1cccnc1)CC2 | inconclusive: 0.0094 µM [inhibitor, full curve, poor fit]
2 | CC1CCN(S(=O)(=O)c2ccc(NC(=O)CN3CCCC3)cc2)CC1 | inactive
3 | CCOc1ccc(CCNC(=O)c2cn(CC)c3ccc(S(=O)(=O)N4CCc5ccccc5C4)cc3c2=O)cc1OCC | inactive
4 | COc1cc(NC(=O)c2cc(-c3cccs3)on2)cc(OC)c1OC | inconclusive: 5.62 µM [inhibitor, partial curve, poor fit]
5 | Cc1nnc(SCc2ccc([N+](=O)[O-])cc2)[nH]c1=O | inactive
6 | CSCCNC(=O)c1ccc2nc(C3CCCCC3)oc2c1 | inconclusive: 1.26 µM [inhibitor, single point]
7 | COc1ccc(-c2csc(N3CCN(C(=O)c4ccccc4)CC3)n2)cc1 | inconclusive: 29.1 µM [inhibitor, single point]
8 | CC(C)N(C)NC(=S)Nc1ccccc1 | inactive
9 | Cc1ccc(S(=O)(=O)N2CCN(C(=O)CSc3ccc(F)cc3)CC2)cc1 | inconclusive: 35.5 µM [inhibitor, single point]
10 | O=C(CCCOc1ccc(Cl)cc1Cl)NCc1ccccn1 | inconclusive: 5.62 µM [inhibitor, single point]
11 | CC1=CC(C)(C)NC(=S)N1c1ccc(C)c(C)c1 | inconclusive: 4.47 µM [inhibitor, full curve, poor fit]
12 | NC(N)=NC(N)=NCCc1ccccc1 | inactive
13 | CC(=O)c1c(C)[nH]c(C(=O)Nc2ccc(Cl)cc2)c1C | inconclusive: 2.82 µM [activator, partial curve, poor fit]
14 | CCOc1ccc(-c2cn3ccccc3n2)cc1 | active: 3.55 µM
15 | Cc1ccc(-n2c(SCC(=O)Nc3ccc4c(c3)OCO4)nnc2-c2ccoc2C)cc1 | inconclusive: 31.6 µM [inhibitor, single point]
16 | COc1ccc(Nc2cccc(Cl)c2)c(C(=O)O)c1 | inconclusive: 29.1 µM [inhibitor, single point]
17 | Cn1c(SCc2ccc(Cl)cc2)nc(C(F)(F)F)cc1=O | inconclusive: 20.6 µM [inhibitor, single point]
18 | COc1ccc(-c2nc(CSCC(=O)NCc3ccc4c(c3)OCO4)c(C)o2)cc1OC | inconclusive: 25.9 µM [activator, single point]
19 | CCc1ccccc1-n1c(SCC(=O)Nc2ccc3c(c2)OCCO3)nc2[nH]ncc2c1=O | inactive
20 | CC(=O)N[C@]1(C(F)(F)F)C(=O)Nc2c1c(=O)n(C)c(=O)n2C | inconclusive: 0.1 µM [activator, full curve, poor fit]
21 | O=C(Cn1cnc2sc3c(c2c1=O)CCCC3)NCC(=O)Nc1ccc(F)cc1F | inconclusive: 12.6 µM [inhibitor, partial curve]
22 | Cc1nc(NC(=O)CN2CCOCC2)sc1-c1ccccc1 | inconclusive: 1.12 µM [activator, full curve]

Row | Structure (SMILES) | Potency
23 | CC12COC3(C(=O)Nc4ccc([N+](=O)[O-])cc4)CC1CCC32C (stereo not drawn) | inactive
24 | COc1ccc(-c2c(NCCc3ccccc3)c(=O)c2=O)cc1 | inconclusive: 0.224 µM [inhibitor, full curve, poor fit]
25 | CC(C)c1nnc(NC(=O)C2CCN(c3nc4ccccc4s3)CC2)s1 | inconclusive: 1.16 µM [inhibitor, single point]
26 | O=C(CSc1nnc(COc2ccccc2Cl)o1)NC(=O)NC1CCCC1 | inconclusive: 2.06 µM [inhibitor, partial curve, poor fit]
27 | CC(=O)Nc1ccc(S(=O)(=O)Oc2ccccc2N2C(=O)C3C4CCC(C4)C3C2=O)cc1 (stereo not drawn) | active: 10 µM
28 | CCCN(CC(=O)Nc1ccccc1C)C(=O)c1ccc(N2CCCCCC2)c([N+](=O)[O-])c1 | inconclusive: 15.8 µM [inhibitor, partial curve, poor fit]
29 | CCN(CCC#N)c1ccc(/C=N/Nc2nc(C)cc(=O)[nH]2)c(C)c1 | inactive
30 | COCCCC1CCN(C(=O)c2cc(COc3ccc(C)nc3)on2)CC1 | inconclusive: 7.08 µM [inhibitor, partial curve]
31 | CCn1cc(C(=O)NCc2ccco2)c(=O)c2ccc(C)nc21 | inconclusive: 35.5 µM [inhibitor, single point]
32 | COc1ccc(-c2[nH]c3ccccc3c2SCCNC(=O)c2cc(OC)c(OC)c(OC)c2)cc1 | inconclusive: 35.5 µM [inhibitor, single point]
33 | COC(=O)C1=CN(Cc2ccc(OC)cc2)C=C(C(=O)OC)C1c1ccsc1 | inconclusive: 12.6 µM [inhibitor, partial curve, poor fit]
34 | CCOc1ccc(-c2cc(CCCC(=O)NCCc3ccccc3)no2)cc1 | inactive
35 | Cn1cccc1/C=C1\SC(=S)N(NC(=O)c2ccccc2O)C1=O | inactive
36 | Cc1cccc2sc(NNC(=O)c3ccc(S(=O)(=O)N4CC(C)CC(C)C4)cc3)nc12 (stereo not drawn) | inconclusive: 20.6 µM [inhibitor, partial curve, poor fit]
37 | N[C@H](C(=O)O)c1cc(=O)[nH]o1 | inconclusive: 20.6 µM [activator, single point]
38 | Cc1ccc(N2CC3=C(C2=O)C(c2ccccc2)NC(=O)N3C)cc1 (stereo not drawn) | inconclusive: 1.26 µM [activator, partial curve, poor fit]
39 | [O-][n+]1ccc(OCc2ccccc2)cc1 | inconclusive: 0.224 µM [inhibitor, full curve, poor fit]
40 | NC(=O)c1nsc(C(=O)N(c2cccc(F)c2)C(C(=O)NCc2ccccc2)c2ccc(O)cc2)c1N (stereo not drawn) | inconclusive: 7.08 µM [inhibitor, full curve, poor fit]
41 | Cc1nc(-c2ccc(F)cc2)c(CC(=O)N(C)CC(=O)Nc2ccc(Br)cc2C)s1 | inactive
42 | O=C(O)/C=C/c1ccc([N+](=O)[O-])o1 | inconclusive: 3.16 µM [inhibitor, partial curve, poor fit]
43 | Nc1nc(-c2ccccc2)c(N=Nc2cccc3ccccc23)s1 | inconclusive: 32.6 µM [inhibitor, single point]

Looked up above.
O=C(CSc1nnc(COc2ccccc2Cl)o1)NC(=O)NC1CCCC1 – Potency: inconclusive: 2.06 µM [inhibitor, partial curve, poor fit]
CC(C)c1nnc(NC(=O)C2CCN(c3nc4ccccc4s3)CC2)s1 – Potency: inconclusive: 1.16 µM [inhibitor, single point]
